The other results are listed elsewhere or left out.

Amino acid sequences for entries named in this document (tags omitted). A change or cut given only in a name is not applied to a line headed by its entry.
UniProt Q9NRG9: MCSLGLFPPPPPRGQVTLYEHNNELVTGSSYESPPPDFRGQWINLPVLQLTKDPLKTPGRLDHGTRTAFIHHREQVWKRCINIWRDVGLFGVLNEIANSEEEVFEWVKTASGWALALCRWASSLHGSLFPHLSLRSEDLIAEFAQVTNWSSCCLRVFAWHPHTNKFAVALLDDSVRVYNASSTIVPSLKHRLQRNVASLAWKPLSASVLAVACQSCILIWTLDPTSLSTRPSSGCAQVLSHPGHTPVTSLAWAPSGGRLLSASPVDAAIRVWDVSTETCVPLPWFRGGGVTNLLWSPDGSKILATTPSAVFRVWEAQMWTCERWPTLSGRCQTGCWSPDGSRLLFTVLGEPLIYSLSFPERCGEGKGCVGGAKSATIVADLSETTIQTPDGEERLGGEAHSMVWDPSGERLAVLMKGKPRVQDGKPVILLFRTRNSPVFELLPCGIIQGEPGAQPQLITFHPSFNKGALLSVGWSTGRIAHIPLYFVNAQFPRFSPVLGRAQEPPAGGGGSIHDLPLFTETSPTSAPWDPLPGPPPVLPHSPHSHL
UniProt Q9NRN7: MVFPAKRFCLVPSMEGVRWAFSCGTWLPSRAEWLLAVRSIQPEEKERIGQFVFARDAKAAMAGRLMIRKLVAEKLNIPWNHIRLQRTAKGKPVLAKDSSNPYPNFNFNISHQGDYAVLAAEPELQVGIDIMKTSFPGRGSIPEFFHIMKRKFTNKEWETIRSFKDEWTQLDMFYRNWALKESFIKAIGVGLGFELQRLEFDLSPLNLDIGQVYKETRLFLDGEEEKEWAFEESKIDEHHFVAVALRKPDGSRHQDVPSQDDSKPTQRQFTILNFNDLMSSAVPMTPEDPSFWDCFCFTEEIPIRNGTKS
UniProt Q7L211: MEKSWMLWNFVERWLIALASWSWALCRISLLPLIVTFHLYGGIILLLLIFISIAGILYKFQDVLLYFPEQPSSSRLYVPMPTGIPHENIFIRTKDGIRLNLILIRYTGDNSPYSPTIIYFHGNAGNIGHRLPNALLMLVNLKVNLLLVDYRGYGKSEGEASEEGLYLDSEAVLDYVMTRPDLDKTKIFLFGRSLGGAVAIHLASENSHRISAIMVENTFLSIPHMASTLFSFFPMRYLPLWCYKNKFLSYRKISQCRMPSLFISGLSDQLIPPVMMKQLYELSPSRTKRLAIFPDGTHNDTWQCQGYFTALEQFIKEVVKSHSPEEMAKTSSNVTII
UniProt Q9NPJ3: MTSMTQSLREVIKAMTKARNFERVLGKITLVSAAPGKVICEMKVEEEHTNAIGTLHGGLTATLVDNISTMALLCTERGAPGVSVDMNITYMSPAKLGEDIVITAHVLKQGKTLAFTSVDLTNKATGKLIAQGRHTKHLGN
UniProt P16219: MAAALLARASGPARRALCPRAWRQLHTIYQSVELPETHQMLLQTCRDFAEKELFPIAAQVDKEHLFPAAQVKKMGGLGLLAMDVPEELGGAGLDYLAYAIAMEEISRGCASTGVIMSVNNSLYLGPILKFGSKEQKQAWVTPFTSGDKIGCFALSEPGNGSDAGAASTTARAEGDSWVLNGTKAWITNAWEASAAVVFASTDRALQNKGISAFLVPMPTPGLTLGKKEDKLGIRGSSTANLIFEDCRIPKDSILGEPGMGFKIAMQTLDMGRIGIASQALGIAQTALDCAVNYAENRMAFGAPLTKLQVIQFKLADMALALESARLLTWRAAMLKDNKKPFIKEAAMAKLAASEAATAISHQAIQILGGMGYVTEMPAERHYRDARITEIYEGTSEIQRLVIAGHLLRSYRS
UniProt P01023, whole entry, looked up: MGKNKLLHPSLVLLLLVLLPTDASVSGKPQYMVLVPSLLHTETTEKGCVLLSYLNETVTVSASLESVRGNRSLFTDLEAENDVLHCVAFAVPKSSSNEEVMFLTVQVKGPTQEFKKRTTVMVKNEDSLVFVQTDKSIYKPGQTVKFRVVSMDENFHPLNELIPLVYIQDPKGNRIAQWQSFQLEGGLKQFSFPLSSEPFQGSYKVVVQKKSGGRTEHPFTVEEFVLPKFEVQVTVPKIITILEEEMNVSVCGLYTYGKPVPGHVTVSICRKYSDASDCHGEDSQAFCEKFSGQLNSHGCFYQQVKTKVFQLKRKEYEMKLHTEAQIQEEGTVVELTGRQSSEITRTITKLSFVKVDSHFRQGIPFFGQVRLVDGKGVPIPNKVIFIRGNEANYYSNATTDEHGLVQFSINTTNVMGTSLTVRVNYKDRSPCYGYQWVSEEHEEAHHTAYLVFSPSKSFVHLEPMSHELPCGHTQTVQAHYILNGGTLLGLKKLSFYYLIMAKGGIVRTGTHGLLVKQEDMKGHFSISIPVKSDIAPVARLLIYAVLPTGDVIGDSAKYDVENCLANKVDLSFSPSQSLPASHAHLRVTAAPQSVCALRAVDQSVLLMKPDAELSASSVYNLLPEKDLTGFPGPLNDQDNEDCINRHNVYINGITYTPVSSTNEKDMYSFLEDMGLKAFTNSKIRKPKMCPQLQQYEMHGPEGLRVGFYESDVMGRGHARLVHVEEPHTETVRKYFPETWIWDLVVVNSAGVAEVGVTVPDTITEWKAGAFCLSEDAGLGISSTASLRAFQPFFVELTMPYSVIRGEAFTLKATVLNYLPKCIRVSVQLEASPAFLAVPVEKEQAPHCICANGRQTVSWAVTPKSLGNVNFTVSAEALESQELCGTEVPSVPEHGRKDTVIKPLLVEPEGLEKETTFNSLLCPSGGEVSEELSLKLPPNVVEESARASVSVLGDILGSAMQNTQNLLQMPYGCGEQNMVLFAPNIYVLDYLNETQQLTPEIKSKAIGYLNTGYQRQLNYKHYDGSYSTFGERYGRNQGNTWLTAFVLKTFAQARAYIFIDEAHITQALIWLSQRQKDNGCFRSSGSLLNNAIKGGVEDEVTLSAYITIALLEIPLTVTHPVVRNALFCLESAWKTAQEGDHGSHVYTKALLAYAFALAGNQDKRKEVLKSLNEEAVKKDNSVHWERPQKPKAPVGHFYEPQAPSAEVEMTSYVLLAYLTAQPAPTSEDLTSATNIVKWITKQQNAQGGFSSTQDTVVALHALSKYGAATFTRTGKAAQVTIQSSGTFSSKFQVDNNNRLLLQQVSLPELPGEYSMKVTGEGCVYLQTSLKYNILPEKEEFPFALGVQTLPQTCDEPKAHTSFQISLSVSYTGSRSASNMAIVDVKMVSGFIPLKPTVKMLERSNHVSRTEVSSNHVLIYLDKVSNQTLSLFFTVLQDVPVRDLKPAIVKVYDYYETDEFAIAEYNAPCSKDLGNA
UniProt P55265: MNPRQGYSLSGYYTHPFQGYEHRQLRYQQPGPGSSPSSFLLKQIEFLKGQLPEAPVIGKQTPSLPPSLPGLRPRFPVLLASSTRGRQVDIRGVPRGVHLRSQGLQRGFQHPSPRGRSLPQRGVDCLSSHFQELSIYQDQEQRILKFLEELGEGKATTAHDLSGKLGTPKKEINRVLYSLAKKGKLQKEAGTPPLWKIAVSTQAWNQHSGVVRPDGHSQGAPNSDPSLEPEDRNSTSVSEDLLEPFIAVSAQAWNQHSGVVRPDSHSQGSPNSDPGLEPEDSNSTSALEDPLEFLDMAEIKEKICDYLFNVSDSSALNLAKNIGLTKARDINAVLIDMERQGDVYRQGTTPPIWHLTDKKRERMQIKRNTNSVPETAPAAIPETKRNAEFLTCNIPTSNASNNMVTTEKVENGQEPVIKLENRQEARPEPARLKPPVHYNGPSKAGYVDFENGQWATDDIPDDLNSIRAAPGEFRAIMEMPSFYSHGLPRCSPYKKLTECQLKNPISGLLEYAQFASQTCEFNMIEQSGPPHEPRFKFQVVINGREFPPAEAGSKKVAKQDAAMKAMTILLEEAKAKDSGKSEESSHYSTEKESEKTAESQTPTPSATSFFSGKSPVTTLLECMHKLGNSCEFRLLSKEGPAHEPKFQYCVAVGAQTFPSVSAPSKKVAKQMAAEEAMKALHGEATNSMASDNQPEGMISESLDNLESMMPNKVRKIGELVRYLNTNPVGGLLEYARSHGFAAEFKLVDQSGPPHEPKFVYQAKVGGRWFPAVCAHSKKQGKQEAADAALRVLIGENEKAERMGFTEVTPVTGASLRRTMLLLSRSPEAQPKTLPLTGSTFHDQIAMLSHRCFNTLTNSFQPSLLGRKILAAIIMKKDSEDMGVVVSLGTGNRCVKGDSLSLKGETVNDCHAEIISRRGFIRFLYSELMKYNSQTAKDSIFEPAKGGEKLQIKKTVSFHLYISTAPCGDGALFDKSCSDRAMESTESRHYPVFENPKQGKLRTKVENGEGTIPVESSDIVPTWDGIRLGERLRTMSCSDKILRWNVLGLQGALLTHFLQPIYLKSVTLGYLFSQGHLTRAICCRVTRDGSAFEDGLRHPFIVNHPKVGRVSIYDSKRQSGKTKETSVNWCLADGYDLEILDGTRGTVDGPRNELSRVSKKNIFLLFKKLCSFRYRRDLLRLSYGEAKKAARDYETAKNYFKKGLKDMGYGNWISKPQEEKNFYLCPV
UniProt P09110: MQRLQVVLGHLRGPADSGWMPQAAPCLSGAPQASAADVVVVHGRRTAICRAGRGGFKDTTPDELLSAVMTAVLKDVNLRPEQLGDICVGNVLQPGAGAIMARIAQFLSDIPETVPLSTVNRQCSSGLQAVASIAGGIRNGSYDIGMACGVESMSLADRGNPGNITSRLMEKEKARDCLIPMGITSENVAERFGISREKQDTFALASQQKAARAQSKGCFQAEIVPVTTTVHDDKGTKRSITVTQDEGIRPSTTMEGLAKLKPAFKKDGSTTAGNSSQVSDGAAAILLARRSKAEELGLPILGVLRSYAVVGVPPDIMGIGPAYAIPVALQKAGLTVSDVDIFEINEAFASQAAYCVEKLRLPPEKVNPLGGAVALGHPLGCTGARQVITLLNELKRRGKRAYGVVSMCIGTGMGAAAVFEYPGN
UniProt P07311: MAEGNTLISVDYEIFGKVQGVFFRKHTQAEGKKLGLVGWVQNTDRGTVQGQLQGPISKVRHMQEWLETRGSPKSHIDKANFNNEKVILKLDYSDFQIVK
UniProt Q9NR19, whole entry, looked up: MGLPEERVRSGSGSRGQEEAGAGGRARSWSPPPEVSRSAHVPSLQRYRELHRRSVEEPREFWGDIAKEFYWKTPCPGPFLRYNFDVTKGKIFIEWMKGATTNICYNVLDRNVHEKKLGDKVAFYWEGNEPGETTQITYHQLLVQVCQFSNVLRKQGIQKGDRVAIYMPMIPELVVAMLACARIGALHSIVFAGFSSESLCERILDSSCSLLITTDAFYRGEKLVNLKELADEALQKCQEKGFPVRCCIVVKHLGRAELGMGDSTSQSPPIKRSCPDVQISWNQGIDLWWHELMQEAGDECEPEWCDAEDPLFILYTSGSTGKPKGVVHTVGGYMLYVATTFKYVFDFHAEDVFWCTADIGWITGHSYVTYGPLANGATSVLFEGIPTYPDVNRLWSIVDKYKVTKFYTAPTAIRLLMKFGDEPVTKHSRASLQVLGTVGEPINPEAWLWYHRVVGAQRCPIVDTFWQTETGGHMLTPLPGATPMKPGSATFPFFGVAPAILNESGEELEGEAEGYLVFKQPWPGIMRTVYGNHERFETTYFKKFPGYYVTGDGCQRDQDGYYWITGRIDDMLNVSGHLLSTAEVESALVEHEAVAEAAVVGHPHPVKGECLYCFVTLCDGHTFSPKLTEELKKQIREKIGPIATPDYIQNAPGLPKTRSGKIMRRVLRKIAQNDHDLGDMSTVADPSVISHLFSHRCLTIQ
UniProt Q9BWD1: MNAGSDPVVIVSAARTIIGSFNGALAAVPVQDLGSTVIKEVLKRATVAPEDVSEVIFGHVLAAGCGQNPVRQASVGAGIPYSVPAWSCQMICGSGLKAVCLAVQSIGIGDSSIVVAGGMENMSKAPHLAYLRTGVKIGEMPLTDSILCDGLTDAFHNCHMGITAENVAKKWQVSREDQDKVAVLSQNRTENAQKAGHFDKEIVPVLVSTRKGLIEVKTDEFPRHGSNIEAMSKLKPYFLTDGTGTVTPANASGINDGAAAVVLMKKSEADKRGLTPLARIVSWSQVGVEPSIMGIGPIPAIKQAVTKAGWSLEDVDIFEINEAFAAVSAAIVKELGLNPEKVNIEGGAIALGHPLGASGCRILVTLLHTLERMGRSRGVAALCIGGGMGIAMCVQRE
UniProt Q8IZP0: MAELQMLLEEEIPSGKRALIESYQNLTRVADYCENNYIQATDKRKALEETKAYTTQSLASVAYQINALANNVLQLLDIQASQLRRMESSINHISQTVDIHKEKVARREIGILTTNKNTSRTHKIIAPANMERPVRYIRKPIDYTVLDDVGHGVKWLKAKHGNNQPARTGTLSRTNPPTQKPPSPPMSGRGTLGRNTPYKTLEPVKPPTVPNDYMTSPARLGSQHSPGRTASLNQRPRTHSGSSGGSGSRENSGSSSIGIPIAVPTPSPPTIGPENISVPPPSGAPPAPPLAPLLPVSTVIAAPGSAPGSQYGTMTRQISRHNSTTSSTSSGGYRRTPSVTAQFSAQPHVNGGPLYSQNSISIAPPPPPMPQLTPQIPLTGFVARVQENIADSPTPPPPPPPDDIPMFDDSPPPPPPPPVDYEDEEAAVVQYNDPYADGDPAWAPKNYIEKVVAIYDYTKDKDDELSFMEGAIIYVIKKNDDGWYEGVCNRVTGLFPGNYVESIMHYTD

Compound in the experiment: CCn1cc(-c2ccnc3[nH]c(-c4cccc(CN(C)C)c4)cc23)c(-c2ccc(NC(=O)N(C)C)cc2)n1
Briefly: log2 fold change, soluble protein after heating vs DMSO (PISA); higher = thermal stabilisation; K562 cells, 10 uM, 30 min; active = over 0.2 and 3.5 SD of the protein, either way, in both replicates (recomputed). Put shortly: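 K562 cells at 2×10^6 cells/mL were treated with 10 μM compound for 30 min. Aliquots were heated for 3 min across 48°C-58°C, pooled, and extracted in PBS with 0.5% NP-40 at 4°C; soluble protein was the supernatant after 21,000xg for 90 min. Soluble protein was quantified by TMTpro 16plex LC-MS/MS with channel sums equalised, and reported as log2 fold change in thermal stability against DMSO controls, with values from duplicates.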
With AAAS (UniProt Q9NRG9), the log2 fold change was inactive: -0.053.
Turning to ACAD8 (UniProt Q9UKU7), the log2 fold change was inactive: -0.055.
As to ACTA1 (UniProt P68133), the log2 fold change is inactive: 0.027.
For AASDHPPT (UniProt Q9NRN7), the log2 fold change was inactive: -0.045.
Regarding ABHD13 (UniProt Q7L211), the log2 fold change is inactive: -0.107.
As for ABCF1 (UniProt Q8NE71), the log2 fold change is inactive: 0.027.
As to ACTR1A (UniProt P61163), the log2 fold change is inactive: 0.015.
In the case of ACOT7 isoform 7 (UniProt O00154) it was inactive: -0.041; in that of ADA (UniProt P00813), inactive: 0.017; in that of ABHD17B (UniProt Q5VST6), inactive: -0.034.
As to ADAT3 (UniProt Q96EY9), the log2 fold change is inactive: -0.102.
Consider ACTL8 (UniProt Q9H568), for which the log2 fold change is inactive: 0.113.
The result for ACTB, A0A2R8Y793 reads inactive: -0.015; that for ACTR6 (UniProt Q9GZN1), inactive: -0.007; that for ACOT13 (UniProt Q9NPJ3), inactive: -0.206.
As for ACADS (UniProt P16219), the log2 fold change is inactive: -0.037.
In the case of ACTL6A (UniProt O96019) it was inactive: -0.032; in that of ABCB7 isoform 2 (UniProt O75027), inactive: -0.024.
As for ABCE1 (UniProt P61221), the log2 fold change was inactive: 0.
Consider ACLY (UniProt P53396), for which the log2 fold change is inactive: 0.006.
In the case of ABLIM1 (UniProt O14639) it was inactive: 0.048; in that of ACOX1 isoform 2 (UniProt Q15067), inactive: -0.048; in that of ACAT1 (UniProt P24752), inactive: 0.005.
Turning to ABCE1 (UniProt H0Y990), the log2 fold change was inactive: 0.128.
ACBD3 (UniProt Q9H3P7): the log2 fold change was inactive: -0.041.
Take ACTR3 (UniProt P61158): the log2 fold change is inactive: 0.001.
Consider A2M (UniProt P01023), for which the log2 fold change is inactive: 0.035.
In the case of ACTR10 (UniProt Q9NZ32) it was inactive: -0.005; in that of ADAR isoform 4 (UniProt P55265), inactive: 0.102.
Turning to ACAA1 (UniProt P09110), the log2 fold change was inactive: 0.001.
The result for ACYP1 (UniProt P07311) reads inactive: -0.084; that for ABCC4 (UniProt O15439), inactive: -0.016; that for ACSS2 isoform 2 (UniProt Q9NR19), inactive: -0.089.
The result for ACAT2 (UniProt Q9BWD1) reads inactive: -0.003.
The result for ABHD10 (UniProt Q9NUJ1) reads inactive: -0.006; that for ABI1 (UniProt Q8IZP0), inactive: 0.125; that for ACOT9 isoform 4 (UniProt Q9Y305), inactive: -0.021.

(Values after the supplement of paper PMC10849652.)
